Results are given in words; binding and its absence hold for the method and conditions named. Some entries that bind do so weakly or less than the wild type.

By UniProt entry, the sequences of proteins in these tests, tags left out. Residues count along the entry.
UniProt O14763, residues 56-182: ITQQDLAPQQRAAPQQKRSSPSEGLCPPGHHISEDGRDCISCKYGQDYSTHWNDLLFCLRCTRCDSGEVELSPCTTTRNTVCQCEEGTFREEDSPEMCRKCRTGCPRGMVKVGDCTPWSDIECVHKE

This passage reports binding results from patent publication US20150353638A1.

The target of test [1] is antigen DR5 (human death receptor 5), immobilised on the CM5 chip (human) (UniProt O14763). Description: SPR, Biacore X100, DR5 amine-coupled to CM5 chip, antibody as analyte. In general terms: SPR reads the build-up and loss of mass on a sensor chip optically.
Test [2] shares this target. Description: SPR (Biacore X100), DR5 immobilised on CM5 chip, antibody injected as analyte.

B1: humanized anti-human DR5 monoclonal antibody AD10 (antibody, human IgG1, kappa, V domains shown)
VH: EIQLVQSGPELKKPGASVKVSCKASGYTFTDFSMNWVRQAPGQGLKWMGWINTETGEPTYADDFKGRFALSMDTSVSTAYLQISSLKAEDTAVYFCVRIDYWGQGTTVTVSS
VL: DIVMTQSPLSLPVTPGEPASISCRSSQSLVHSNGNTYLHWYLQKPGQSPQLLIYKVSNRFSGVPDRFSGSGSGTDFTLKISRVEAEDVGVYYCFQSTHVPHTFGQGTKLEIKR
As for B1, the binding entry in test [1] and in test [2] was “binds” throughout.
